# Test results published in the supplement of paper PMC4604168 (melanoma cell lines).
# This is one part of the list. Single values are uncertain, as repeats are few or missing.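 Cells were imaged in 1,536-well plates, and nuclei stained with an antibody against cleaved PARP were counted against all DNA-stained nuclei to give the apoptosis fraction. Screening doses were chosen to leave most cells alive, and resting and induced cleaved-PARP levels differ strongly between cell lines.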
# Tests used:
# Assay in all cases: cleaved PARP positive nuclei fraction relative to DMSO control; melanoma cells; higher = more apoptosis
# Conditions in all cases: library dose: low library concentration; 72 h
# 501Mel = tested on: 501Mel
# A101D = tested on: A101D
# A2058 = tested on: A2058
# C32 = tested on: C32
# CBRC008 = tested on: CBRC008 (line from a melanoma biopsy)
# CBRC014 = tested on: CBRC014 (line from a melanoma biopsy)
# CBRC016 = tested on: CBRC016 (line from a melanoma biopsy)
# CBRC017 = tested on: CBRC017 (line from a melanoma biopsy)
Structure (SMILES),cleaved PARP positive nuclei fraction (501Mel) [%],cleaved PARP positive nuclei fraction (A101D) [%],cleaved PARP positive nuclei fraction (A2058) [%],cleaved PARP positive nuclei fraction (C32) [%],cleaved PARP positive nuclei fraction (CBRC008) [%],cleaved PARP positive nuclei fraction (CBRC014) [%],cleaved PARP positive nuclei fraction (CBRC016) [%],cleaved PARP positive nuclei fraction (CBRC017) [%]
"Cn1cnc2c(F)c(Nc3ccc(Br)cc3Cl)c(C(=O)NOCCO)cc21 [selumetinib] + CCCCCCCCCCCC1=C(O)C(=O)C=C(O)C1=O [Embelin] (first compound 0.015 µM, partner dose 1.2 µM)",407,14.6,68.2,195,138,77.3,113,112
"CN(c1ncccc1CNc1nc(Nc2ccc3c(c2)CC(=O)N3)ncc1C(F)(F)F)S(C)(=O)=O + c1cc(-c2cnn3cc(-c4ccc(OCCN5CCCCC5)cc4)cnc23)ccn1 [Dorsomorphin] (first compound 0.08 µM, partner dose 0.4 µM)",79.1,15,155,640,57.3,120,89.2,91.9
"NC(=O)c1ccc(N(C(N)=O)c2c(F)cccc2F)nc1-c1ccc(F)cc1F + O=C1NC(=O)/C(=C/c2ccc(-c3ccc(F)cc3O)o2)S1 [AS252424] (first compound 0.4 µM, partner dose 1 µM)",182,50.2,91.1,72,75.5,121,79.3,157
"Cn1cnc2c(F)c(Nc3ccc(Br)cc3Cl)c(C(=O)NOCCO)cc21 [selumetinib] + O=C(Nc1ccccc1)c1cc([N+](=O)[O-])ccc1Cl [GW9662] (first compound 0.015 µM, partner dose 2 µM)",281,34,179,20.6,121,97.6,51.1,129
"NC1(c2ccc(-c3nc4ccn5c(=O)[nH]nc5c4cc3-c3ccccc3)cc2)CCC1 + COc1ccc2c(c1)CCC1C2CCC2(C)C(NCCCCCCN3C(=O)C=CC3=O)CCC12 [U73122] (first compound 0.4 µM, partner dose 0.4 µM)",83.2,61.4,225,112,154,108,97.3,239
"NC1(c2ccc(-c3nc4ccn5c(=O)[nH]nc5c4cc3-c3ccccc3)cc2)CCC1 + Cn1cc(/C=C2\C(=O)Nc3cccnc32)c2ccccc21 [GW441756] (first compound 0.4 µM, partner dose 0.4 µM)",77.9,22,164,65.8,112,91.3,90.5,70
"CCN(CC)CCNC(=O)c1c(C)[nH]c(/C=C2\C(=O)Nc3ccc(F)cc32)c1C [sunitinib] + CC(C)CCN1c2nc(Nc3cc(F)c(O)c(F)c3)ncc2N(C)C(=O)C1C [BID1870] (first compound 0.4 µM, partner dose 0.2 µM)",87.5,73.6,26.6,105,162,57.1,62.1,94.7
"CC1(C)CCC(c2ccc(Cl)cc2)=C(CN2CCN(c3ccc(C(=O)NS(=O)(=O)c4ccc(N[C@H](CCN5CCOCC5)CSc5ccccc5)c(S(=O)(=O)C(F)(F)F)c4)cc3)CC2)C1 + CCN(CC)CCCCNc1ncc2cc(-c3cc(OC)cc(OC)c3)c(NC(=O)NC(C)(C)C)nc2n1 [PD173074] (first compound 0.4 µM, partner dose 0.1 µM)",68.4,43.1,74,250,1070,629,197,402
"CS(=O)(=O)c1ccc(C(=O)Nc2ccc(Cl)c(-c3ccccn3)c2)c(Cl)c1 [vismodegib] + CCN(CC)CCCCNc1ncc2cc(-c3cc(OC)cc(OC)c3)c(NC(=O)NC(C)(C)C)nc2n1 [PD173074] (first compound 1 µM, partner dose 0.1 µM)",125,26.9,47.2,71.6,30.2,102,62.9,104
"CC1(C)CCC(c2ccc(Cl)cc2)=C(CN2CCN(c3ccc(C(=O)NS(=O)(=O)c4ccc(N[C@H](CCN5CCOCC5)CSc5ccccc5)c(S(=O)(=O)C(F)(F)F)c4)cc3)CC2)C1 + COc1cc2ncnc(Nc3ccc(Oc4ccccc4)cc3)c2cc1OC [SrcI1] (first compound 0.4 µM, partner dose 2 µM)",67.2,167,181,240,370,299,264,259
"NC1(c2ccc(-c3nc4ccn5c(=O)[nH]nc5c4cc3-c3ccccc3)cc2)CCC1 + c1cc(-c2cnn3cc(-c4ccc(OCCN5CCCCC5)cc4)cnc23)ccn1 [Dorsomorphin] (first compound 0.4 µM, partner dose 0.4 µM)",287,23,57.6,60.8,143,91.5,25.5,99.9

# Laid out differently: results already given
Structure (SMILES)	cleaved PARP positive nuclei fraction (501Mel) [%]	cleaved PARP positive nuclei fraction (A101D) [%]	cleaved PARP positive nuclei fraction (A2058) [%]	cleaved PARP positive nuclei fraction (C32) [%]	cleaved PARP positive nuclei fraction (CBRC008) [%]	cleaved PARP positive nuclei fraction (CBRC014) [%]	cleaved PARP positive nuclei fraction (CBRC016) [%]	cleaved PARP positive nuclei fraction (CBRC017) [%]
Cn1cnc2c(F)c(Nc3ccc(Br)cc3Cl)c(C(=O)NOCCO)cc21 [selumetinib] + O=C(Nc1ccccc1)c1cc([N+](=O)[O-])ccc1Cl [GW9662] (first compound 0.015 µM, partner dose 2 µM)	281	34	179	20.6	121	97.6	51.1	129
NC1(c2ccc(-c3nc4ccn5c(=O)[nH]nc5c4cc3-c3ccccc3)cc2)CCC1 + COc1ccc2c(c1)CCC1C2CCC2(C)C(NCCCCCCN3C(=O)C=CC3=O)CCC12 [U73122] (first compound 0.4 µM, partner dose 0.4 µM)	83.2	61.4	225	112	154	108	97.3	239
